US20220251209A1
Results are given in words; binding and its absence hold for the method and conditions named. Some binding calls cover weakened binding; strength is not graded here.

T1: canine CTLA-4 (canine) (UniProt Q9XSI1)
T1 sequence: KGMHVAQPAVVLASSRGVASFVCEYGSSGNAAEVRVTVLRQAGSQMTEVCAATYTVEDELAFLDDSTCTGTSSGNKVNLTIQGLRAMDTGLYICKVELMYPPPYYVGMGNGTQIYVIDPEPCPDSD


Tests used:
canine CTLA-4 (canine) [1] = molecular target: T1, canine CTLA-4 (canine); test: ELISA, canine CTLA-4 (FIG. 2)
canine CTLA-4 (canine) [2] = molecular target: T1, canine CTLA-4 (canine); test: ELISA, canine CTLA-4 coated (FIG. 1)
canine CTLA-4 (canine) [3] = molecular target: T1, canine CTLA-4 (canine); test: ELISA, canine CTLA-4 coated, anti-dog IgG Fc-HRP
canine CTLA-4 (canine) [4] = molecular target: T1, canine CTLA-4 (canine); test: ELISA, canine CTLA-4

Row | Binder | binding (canine CTLA-4 (canine) [1]) | binding (canine CTLA-4 (canine) [2]) | binding (canine CTLA-4 (canine) [3]) | binding (canine CTLA-4 (canine) [4])
1 | chimeric mouse-canine anti-human CTLA-4 antibody 3B10 (antibody, V domains shown) VH: EVQLQQFGAELVKPGASVKMSCKASGYTFTDYNMDWVRQSGKSLEWIGNINPNSESTSYNQKFKGKATLTVDKSSSTAYMELRSLTSDDTAVYYCTRDGNRYDAWFAYWGQGTLVTVSS VL: QIVLTQSPAIMSASPGEKVTMTCSASSSVTYMHWFQQKPGTSPKLWIYSTSILASGVPARFSGSGSGTSYSLTISRMEAEDAATYYCQQRTSYPLTFGTGTKLELKR | binds | binds | binds | –
2 | chimeric mouse-canine anti-human CTLA-4 antibody 8H5 (antibody, V domains shown) VH: QVQLQQSGDDLVKPGASVKLSCKASGYTFTSYWINWIKQRPGQGLEWIGRIAPGSGTTYYNEVFKGKATLTVDKYSSTAYIQLSSLSSEDSAVYFCARGDYGSYWGQGTLVTVSS VL: QIVLTQSPAIMSASPGEKVTMTCSASSSISYMHWFQQKPGTSPKRWIYDTSKLASGVPARFSGSGSGTSYSLTINSMEAEDAATYYCHQRTSYPLTFGAGTKLELKR | – | – | binds | –
3 | chimeric human-canine anti-human CTLA-4 antibody 411 (antibody, V domains shown) VH: QVQLVESGGGVVQPGRSLRLSCVASGFTFSSHGMHWVRQAPGKGLEWVAVIWYDGRNKYYADSVKGRFTISRDNSKNTLFLQMNSLRAEDTAVYYCARGGHFGPFDYWGQGTLVTVSS VL: EIVLTQSPGTLSLSPGERATLSCRASQSISSSFLAWYQQRPGQAPRLLIYGASSRATGIPDRFSGSGSGTDFTLTISRLEPEDFAVYYCQQYGTSPWTFGQGTKVEIKR | – | – | binds | –
4 | chimeric human-canine anti-human CTLA-4 antibody 418 (antibody, V domains shown) VH: QVQLVESGGGVVQPGRSLRLSCTASGFTFSNYGMHWVRQAPGKGLEWVAVIWYDGSNKHYGDSVKGRFTISSDNSKNTLYLQMNSLRAEDTAVYYCARGERLGSYFDYWGQGTLVTVSS VL: EIVLTQSPGTLSLSPGERATLSCRTSVSSSYLAWYQQKPGQAPRLLIYGASSRATGIPDRFSGSGSGTDFTLTISRLEPEDFAVYYCQQYGISPFTFGGGTKVEIKR | – | – | binds | –
5 | chimeric human-canine anti-human CTLA-4 antibody 611 (antibody, V domains shown) VH: QVQLVESGGGVVEPGRSLRLSCTASGFTFSSYGMHWVRQAPGKGLEWVAVIWYDGSNKHYADSAKGRFTISRDNSKNTLYLQMNSLRAEDTAVYYCARAGLLGYFDYWGQGTLVTVSS VL: EIVLTQSPGTLSLSPGERATLSCRASQSVSSYLAWYQQKPGQAPRPLIYGVSSRATGIPDRFSGSGSGTDFTLTISRLEPEDFAVYYCQQYGISPFTFGPGTKVDIKR | – | – | binds | –
6 | chimeric mouse-canine anti-human CTLA-4 antibody 3B3 (antibody, V domains shown) VH: EVKLVNSGGGLVQPGNSLRLSCATSGFTFTDFYMSWVRQPPGKALEWLGFVRNRANGYTTEYSVSVKGRFIISRDNFQSTLFLQMNTLRAEDSGTYYCVRGPGDTADYTMDYWGQGTSVTVSS VL: QAVVTQESAFTTSPGGTVILTCRSSTGAVTTNNYANWVQEKPDHLFTGLIGGTSNRAPGVPVRFSGSLIGDKAALTITGAQTEDDGMYFCALWYTTHFVFGGGTKVTVLG | – | – | binds | –
7 | caninized 3B10 antibody c3B10L2-H3 (antibody, V domains shown) VH: EVQLVQSGAEVKKPGASVKVSCKASGYTFTDYNMDWVRQAHGASLDWIGNINPNSESTSYNQKFKGKATLTVDKSTSTAYMELSSLRAGDIAVYYCTRDGNRYDAWFAYWGQGTLVTVSS VL: QIVMTQTPLSLSVSPGEPASISCSASSSVTYMHWFQQKPGQSPQSLIYSTSILASGVPDRFSGSGSGTDFTLKISRVEADDAGVYYCQQRTSYPLTFGTGTKLELKR | – | – | – | binds
8 | caninized 3B10 antibody c3B10L3-H3 (antibody, V domains shown) VH: EVQLVQSGAEVKKPGASVKVSCKASGYTFTDYNMDWVRQAHGASLDWIGNINPNSESTSYNQKFKGKATLTVDKSTSTAYMELSSLRAGDIAVYYCTRDGNRYDAWFAYWGQGTLVTVSS VL: QIVLTQTPLSLSVSPGEPASISCSASSSVTYMHWFQQKPGQSPKSWIYSTSILASGVPDRFSGSGSGTDFTLKISRVEADDAGVYYCQQRTSYPLTFGTGTKLELKR | binds | – | – | binds
9 | caninized 3B10 antibody c3B10L2-H2 (antibody, V domains shown) VH: EVQLVQSGAEVKKPGASVKVSCKASGYTFTDYNMDWVRQAPGASLDWIGNINPNSESTSYNQKFKGKATLTVDKSTSTAYMELSSLRAGDIAVYYCTRDGNRYDAWFAYWGQGTLVTVSS VL: QIVMTQTPLSLSVSPGEPASISCSASSSVTYMHWFQQKPGQSPQSLIYSTSILASGVPDRFSGSGSGTDFTLKISRVEADDAGVYYCQQRTSYPLTFGTGTKLELKR | – | – | – | binds
10 | caninized 3B10 antibody c3B10L3-H2 (antibody, V domains shown) VH: EVQLVQSGAEVKKPGASVKVSCKASGYTFTDYNMDWVRQAPGASLDWIGNINPNSESTSYNQKFKGKATLTVDKSTSTAYMELSSLRAGDIAVYYCTRDGNRYDAWFAYWGQGTLVTVSS VL: QIVLTQTPLSLSVSPGEPASISCSASSSVTYMHWFQQKPGQSPKSWIYSTSILASGVPDRFSGSGSGTDFTLKISRVEADDAGVYYCQQRTSYPLTFGTGTKLELKR | binds | – | – | binds
11 | caninized 3B10 antibody c3B10L3-H4 (antibody, V domains shown) VH: EVQLQQSGAEVKKPGASVKVSCKASGYTFTDYNMDWVRQAPGASLDWIGNINPNSESTSYNQKFKGKATLTVDKSTSTAYMELRSLTAGDIAVYYCTRDGNRYDAWFAYWGQGTLVTVSS VL: QIVLTQTPLSLSVSPGEPASISCSASSSVTYMHWFQQKPGQSPKSWIYSTSILASGVPDRFSGSGSGTDFTLKISRVEADDAGVYYCQQRTSYPLTFGTGTKLELKR | binds | – | – | binds
12 | caninized 3B10 antibody c3B10L1-H1 (antibody, V domains shown) VH: EVQLVQSGAEVKKPGASVKVSCKASGYTFTDYNMDWVRQAPGAGLDWMGNINPNSESTSYNQKFKGRVTLTADTSTSTAYMELSSLRAGDIAVYYCTRDGNRYDAWFAYWGQGTLVTVSS VL: DIVMTQTPLSLSVSPGEPASISCSASSSVTYMHWFRHKPGQSPQSLIYSTSILASGVPDRFSGSGSGTDFTLKISRVEADDAGVYYCQQRTSYPLTFGTGTKLELKR | – | – | – | binds
